These results are taken from the supplement of paper PMC4371806.

This assay has as its system Escherichia coli BW25113. Description: plate-normalized OD600 growth (mean of duplicates) (OD600 (normalized)); higher = more growth (less inhibition). The settings on record: 10 µM. How it is done:
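E. coli BW25113 in LB (100 µl, 96-well, no shaking) was exposed to 10 µM of each compound (here the ChemBridge subset of a ~30,000-member library) and grown at 37°C for 24 h or 15°C for 48 h, in duplicate. Growth was read as OD600 and the duplicate ODs were normalized across screening plates to correct plate-to-plate variation.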

The full ranking holds about 1,600 compounds; the median of “plate-normalized OD600 growth (mean of duplicates)” is about 0.31, and the lowest 2% start at about 0.23. This is one part of the list.

`Cc1ccc(NC(=O)COc2ccc(C)cc2)cc1`: the “plate-normalized OD600 growth” value is, setting by setting: (temperature: 15°C, 48 h) 0.244; (temperature: 37°C, 24 h) 0.597.
Turning to `CN(C)CC(C)(C)CNC1CC2CCC1C2` (stereo not given), the “plate-normalized OD600 growth” value runs as follows: (temperature: 15°C, 48 h) 0.265; (temperature: 37°C, 24 h) 0.649.
The corresponding values for `O=C(NC1C2CC3CC(C2)CC1C3)c1cccc([N+](=O)[O-])c1` (stereo not given) are 0.23 and 0.655.
For the molecule `CC1=CCC2C(=O)N(C3CCCCC3)C(=O)C2C1` (stereo not given), the “plate-normalized OD600 growth” value was found to be 0.262 (temperature: 15°C, 48 h) and 0.621 (temperature: 37°C, 24 h).
Take `NC(=O)C1CCCN(CC2CC=CCC2)C1` (stereo not given): the “plate-normalized OD600 growth” value runs as follows: (temperature: 15°C, 48 h) 0.249; (temperature: 37°C, 24 h) 0.576.
In the same order, the values of `Nc1nc(-c2ccc(NC(=O)c3ccc(Cl)cc3)cc2)cs1` are 0.247 and 0.6.
The corresponding values for `COc1ccc(NS(=O)(=O)c2ccc(NS(=O)(=O)c3ccccc3[N+](=O)[O-])cc2)nn1` are 0.254 and 0.616.
The corresponding values for `O=C(Nn1cnnc1)c1ccccc1I` are 0.248 and 0.627.
For the molecule `Cc1cccc(N2C(=O)CC(N3CCOCC3)C2=O)c1` (stereo not given), the “plate-normalized OD600 growth” value was 0.247 (temperature: 15°C, 48 h) and 0.591 (temperature: 37°C, 24 h).
The corresponding values for `CCC(=O)C1=C(N2CCOCC2)CC(C)(C)CC1=O` are 0.272 and 0.643.
In the same order, the values of `c1ccc(-c2nnc3n2C2(CCCC2)Cc2ccccc2-3)cc1` are 0.246 and 0.629.
In the same order, the values of `CC(NC(=O)CCC(=O)O)c1ccccc1` (stereo not given) are 0.304 and 0.641.
Turning to `Cc1cc(C)c(C2C(C#N)=C(N)Oc3n[nH]c(C)c32)c(C)c1` (stereo not given), the “plate-normalized OD600 growth” value (temperature: 15°C, 48 h) was 0.218 and the “plate-normalized OD600 growth” value (temperature: 37°C, 24 h) is 0.621.
For the molecule `O=C(NCc1ccccn1)C(=O)Nc1cccc(Cl)c1`, the “plate-normalized OD600 growth” value reads like this: (temperature: 15°C, 48 h) 0.26; (temperature: 37°C, 24 h) 0.651.
As for `O=C(O)CCN(CC(=O)O)C(=O)c1ccccc1`, the “plate-normalized OD600 growth” value reads like this: (temperature: 15°C, 48 h) 0.238; (temperature: 37°C, 24 h) 0.63.
The corresponding values for `O=C(/C=C/Nc1ccccn1)c1ccc(Cl)s1` are 0.249 and 0.619.
In the same order, the values of `CCc1ccc2oc(-c3ccc(N)cc3)nc2c1` are 0.236 and 0.605.
Take `CCN(CC)C(=O)CSc1nc(O)cc(=O)n1C`: the “plate-normalized OD600 growth” value amounted to 0.235 (temperature: 15°C, 48 h) and 0.622 (temperature: 37°C, 24 h).
In the same order, the values of `N#CC1=C(N)OC2=C(C(=O)CC(c3ccccc3)C2)C1C1CCCCC1` (stereo not given) are 0.236 and 0.614.
The corresponding values for `C/C(=C\c1ccccc1)CN(C)C1CCN(C)CC1` are 0.249 and 0.637.
In the same order, the values of `CSc1nnc2n(C)c(=O)c3c4c(sc3n12)COC(C)(C)C4` are 0.246 and 0.62.
As to `OC1CCC(C2CC3CCC2C3)CC1O` (stereo not given), the “plate-normalized OD600 growth” value (temperature: 15°C, 48 h) amounted to 0.25 and the “plate-normalized OD600 growth” value (temperature: 37°C, 24 h) was determined as 0.62.
The corresponding values for `NC(=O)COc1ccc([N+](=O)[O-])cc1` are 0.25 and 0.62.
In the same order, the values of `Cc1cccc(N2CCN(Cc3ccsc3)CC2)c1C` are 0.258 and 0.626.
As for `CC(NC(=O)c1ccccc1)C(O)c1ccccc1` (stereo not given), the “plate-normalized OD600 growth” value reads like this: (temperature: 15°C, 48 h) 0.264; (temperature: 37°C, 24 h) 0.63.
Regarding `Cc1cccc(C)c1OCCCN1CCOCC1`, the “plate-normalized OD600 growth” value is, setting by setting: (temperature: 15°C, 48 h) 0.269; (temperature: 37°C, 24 h) 0.619.
Regarding `COc1ccc(NC(=O)c2cccnc2)cc1`, the “plate-normalized OD600 growth” value (temperature: 15°C, 48 h) was found to be 0.24 and the “plate-normalized OD600 growth” value (temperature: 37°C, 24 h) came to 0.645.
With `O=C1CC(N2CCN(C(c3ccccc3)c3ccccc3)CC2)C(=O)N1` (stereo not given), the “plate-normalized OD600 growth” value was determined as 0.253 (temperature: 15°C, 48 h) and 0.609 (temperature: 37°C, 24 h).
The corresponding values for `NC(=O)C1(S(=O)(=O)c2ccccc2)CC1` are 0.242 and 0.628.
In the same order, the values of `N#CC(=Cc1cc2c(cc1Br)OCO2)c1nc2ccccc2[nH]1` are 0.273 and 0.61.
The corresponding values for `CC1(C)CC(=O)C=C(NN2CCOCC2)C1` are 0.241 and 0.609.
Regarding `COc1cccc(OC)c1C(=O)N1CCN(Cc2cccc([N+](=O)[O-])c2)CC1`, the “plate-normalized OD600 growth” value runs as follows: (temperature: 15°C, 48 h) 0.266; (temperature: 37°C, 24 h) 0.645.
In the same order, the values of `Cc1cc(NO)nc(-c2ccc(Br)cc2)n1` are 0.221 and 0.622.
In the same order, the values of `O=c1cc(-c2ccccc2)c2cc(Br)ccc2[nH]1` are 0.265 and 0.659.
The corresponding values for `Cc1ccc(-c2nc3ccccc3[nH]2)cc1N` are 0.222 and 0.616.
As to `COc1ccc(NC(=O)C(C)(C)C)cc1`, the “plate-normalized OD600 growth” value came out at 0.265 (temperature: 15°C, 48 h) and 0.636 (temperature: 37°C, 24 h).
With `Cc1nn(-c2ccccc2)c2c1C(c1cccc([N+](=O)[O-])c1)C(C#N)=C(N)O2` (stereo not given), the “plate-normalized OD600 growth” value is 0.239 (temperature: 15°C, 48 h) and 0.624 (temperature: 37°C, 24 h).
In the same order, the values of `O=C1CC(N2CCN(Cc3ccc4c(c3)OCO4)CC2)C(=O)N1c1ccccc1` (stereo not given) are 0.258 and 0.625.
In the same order, the values of `O=C(Nc1cc(Cl)ccc1Cl)c1cnccn1` are 0.234 and 0.624.
The corresponding values for `O=C(O)CSc1nc2ccccc2[nH]1` are 0.259 and 0.621.
On to `N#CCCn1nc(-c2ccccc2)cc1-c1ccccc1`, for which the “plate-normalized OD600 growth” value runs as follows: (temperature: 15°C, 48 h) 0.245; (temperature: 37°C, 24 h) 0.59.
As for `CC(C)C(=O)Nc1c2c(nc3ccccc13)N(C)CC2`, the “plate-normalized OD600 growth” value by setting is: (temperature: 15°C, 48 h) 0.259; (temperature: 37°C, 24 h) 0.649.
Consider `O=c1nc(-c2ccc(Cl)cc2)oc2ccccc12`, for which the “plate-normalized OD600 growth” value reads like this: (temperature: 15°C, 48 h) 0.246; (temperature: 37°C, 24 h) 0.609.
In the same order, the values of `CC1CC(C)CN(S(=O)(=O)c2ccc(Cl)cc2)C1` (stereo not given) are 0.247 and 0.651.
Take `Cn1c(CNC2CCCCC2)nc2ccccc21`: the “plate-normalized OD600 growth” value turned out to be 0.242 (temperature: 15°C, 48 h) and 0.6 (temperature: 37°C, 24 h).
In the same order, the values of `CCCOc1ccc(-c2cn(CC(=O)NN)cn2)cc1` are 0.273 and 0.619.
As to `COc1ccc2[nH]cc(CCNC(=O)c3ccc(Cl)cc3)c2c1`, the “plate-normalized OD600 growth” value (temperature: 15°C, 48 h) stood at 0.252 and the “plate-normalized OD600 growth” value (temperature: 37°C, 24 h) stood at 0.632.
The corresponding values for `O=C1CCC(=O)N1c1ccc(Sc2ccc([N+](=O)[O-])cc2)cc1` are 0.243 and 0.611.
The corresponding values for `COc1ccccc1NS(=O)(=O)c1ccc(Cl)cc1` are 0.256 and 0.651.
In the same order, the values of `O=[N+]([O-])c1ccccc1CNC1C2CC3CC(C2)CC1C3` (stereo not given) are 0.238 and 0.612.
On to `N#CSc1cnc(NC2CCCCC2)s1`, for which the “plate-normalized OD600 growth” value reads like this: (temperature: 15°C, 48 h) 0.254; (temperature: 37°C, 24 h) 0.611.
For the molecule `O=C(O)C1CC1(c1ccccc1)c1ccccc1` (stereo not given), the “plate-normalized OD600 growth” value stood at 0.251 (temperature: 15°C, 48 h) and 0.622 (temperature: 37°C, 24 h).
The corresponding values for `CS(=O)(=O)N1CCN(c2ccc([N+](=O)[O-])c3cccnc23)CC1` are 0.267 and 0.645.
In the same order, the values of `N#C/C(=C\c1cc2c(cc1Br)OCO2)c1ccc([N+](=O)[O-])cc1` are 0.263 and 0.629.
For `COc1ccc(Br)cc1CN1CCSCC1`, the “plate-normalized OD600 growth” value runs as follows: (temperature: 15°C, 48 h) 0.247; (temperature: 37°C, 24 h) 0.615.
As for `O=c1cc(Nc2cccc(Cl)c2)[nH]c(=O)[nH]1`, the “plate-normalized OD600 growth” value is 0.262 (temperature: 15°C, 48 h) and 0.634 (temperature: 37°C, 24 h).
The corresponding values for `CCOc1ccc(C2(C)NC(=O)N(CCN(C)C)C2=O)cc1` (stereo not given) are 0.23 and 0.613.
In the same order, the values of `CC1(C)C(=O)N(O)C(C)(C)C(=O)N1O` are 0.269 and 0.632.
With `C(#CC12CC3CC(CC(C3)C1)C2)CN1CCOCC1`, the “plate-normalized OD600 growth” value was found to be 0.245 (temperature: 15°C, 48 h) and 0.615 (temperature: 37°C, 24 h).
In the same order, the values of `C=CCSc1nc(O)c(CC)c(=O)n1-c1ccc(C)cc1` are 0.229 and 0.599.
The corresponding values for `COc1ccc(-c2cc(=O)c3ccccc3o2)cc1` are 0.244 and 0.596.
The corresponding values for `COc1cc(CN2CCN(c3ccc([N+](=O)[O-])cc3)CC2)ccc1O` are 0.253 and 0.66.
Turning to `CCOc1ccc(Cl)cc1/C=C(/C#N)c1nc2ccc(C)cc2[nH]1`, the “plate-normalized OD600 growth” value (temperature: 15°C, 48 h) was found to be 0.27 and the “plate-normalized OD600 growth” value (temperature: 37°C, 24 h) was 0.63.
In the same order, the values of `O=C(O)CCC(=O)Nc1ccccc1C#Cc1ccc(Br)cc1` are 0.257 and 0.597.
As for `Fc1ccc(CN2CCN(c3ncccn3)CC2)cc1`, the “plate-normalized OD600 growth” value was 0.253 (temperature: 15°C, 48 h) and 0.629 (temperature: 37°C, 24 h).
The corresponding values for `Cn1c(C(O)(c2ccccc2)c2ccccc2)nc2ccccc21` are 0.253 and 0.62.
The corresponding values for `OC(COc1ccccc1)Cn1ccnc1` (stereo not given) are 0.244 and 0.621.
The corresponding values for `CN1CCN(C2C3CC4CC(C3)CC2C4)CC1` (stereo not given) are 0.257 and 0.605.
As for `N#CC1=C(N)SC(N)=C(C#N)C1c1ccc(-c2ccccc2)cc1`, the “plate-normalized OD600 growth” value (temperature: 15°C, 48 h) came out at 0.242 and the “plate-normalized OD600 growth” value (temperature: 37°C, 24 h) worked out at 0.607.
The corresponding values for `OC1CCCN(Cc2ccc(Cl)cc2Cl)C1` (stereo not given) are 0.278 and 0.64.
